# Measurements taken from patent US7919274B2, “Light-emitting fusion proteins and diagnostic and therapeutic methods therefor” (Dana-Farber Cancer Institute, Inc., priority 2001, dated 2011).
# For at least one compound, name, drawing or mass did not settle the structure.
# Tested on: TETo-driven luciferase reporter plasmid (pUHC13-3)
# Assay: TETr-fusion transcriptional luciferase reporter gene assay in U2OS cells
# Type: cell-based, human
# Conditions: doxycycline 2 μg/ml
# Experimental: (A) is a schematic of reporter plasmid (pUHC 13-3) that contains seven TETracycline operator sequences (TETo) upstream of a minimal CMV promoter that includes a TATA box. (B, C) show U2OS cells were cotransfected with plasmids encoding the indicated TETr fusion proteins along with the pUHC 13-3 reporter plasmid and a plasmid encoding β-galactosidase. Numbers shown at the bottom of the graph indicate the amount of TETr plasmid (in μg). 48 hours later luciferase activity, normalized for β-galactosidase, was determined. Fold repression is the corrected luciferase value for TETr alone divided by the corrected luciferase values for the indicated TETr fusion proteins. Fold activation represents the corrected luciferase values for the indicated TETr fusion proteins divided by the corrected luciferase value for TETr alone. […]
# For TETr-fusion transcriptional assay, subconfluent U2OS cells were transiently transfected in 6-well plates in duplicate with 1 μg of […], 1 μg of pUHC13-3 reporter plasmid, and 3 μg of the indicated plasmids encoding TETr-fusion proteins. […] 48 hours after transfection luciferase activity and β-galactosidase activity was determined as described previously (Qin, 1995).
smiles,measurement,value
"C[C@H]1c2cccc(O)c2C(=O)C2=C(O)[C@]3(O)C(=O)C(C(N)=O)=C(O)[C@@H](N(C)C)[C@@H]3[C@@H](O)[C@@H]21 [Doxycycline, doxycycline]",effect on transcriptional effects of TETr-RB and TETr-E2F1,blocked
same,effect on transcriptional effects of TETr-cyclin A and TETr-cyclin E,completely blocked
